For at least one entry, the source does not settle the construct or the ends of the probe. Where cells or extracts were used, other partners may take part.

Series [1] deals with JDP2 (MEF nuclear extract) + Nrf2 (MEF nuclear extract) + MafK (MEF nuclear extract). Kind of series: EMSA supershift. The conditions noted are these: WT MEF nuclear extract; EMSA: 5 ug GST fusion or 10 ng IVT protein, 25 C 30 min; 5% native PAGE in 0.5x TBE at 4 C; binding buffer, salt and pH not given; protein in an extract.
In series [2] the test system is Nrf2 (MEF nuclear extract) + MafK (MEF nuclear extract). Kind of series: EMSA supershift. The conditions noted are these: Jdp2 KO MEF nuclear extract; EMSA: 5 ug GST fusion or 10 ng IVT protein, 25 C 30 min; 5% native PAGE in 0.5x TBE at 4 C; binding buffer, salt and pH not given; protein in an extract.

As for “CAGTCACAGTGACTCAGCAGAATCT (double strand) [human NQO1-ARE WT]”, the binding result in series [1] and in series [2] was “binds” throughout.

(Values after article PMC3847324, “Jun dimerization protein 2 is a critical component of the Nrf2/MafK complex regulating the response to ROS homeostasis”.)
